Results deposited as PubChem BioAssay AID1259405 (NCATS, 2018)
Assay: 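Mouse-designed siRNAs used to find CHO productivity engineering targets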 (primary screen). Cells: Chinese hamster CHO-K1 ovary cells with stable secreted eGFP expression. Reagents: single siRNA against mouse genes, 0.8 pmol siRNA per well (2 µl of 400 nM stock). Time to read-out: 3 days. Read-out: 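Per-well intracellular GFP measured by laser scanning cytometry, plus viability from ATP luminescence, each relative to plate median of non-targeting control wells, in %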. Reading the numbers: GFP, % of control: higher = more GFP per well, higher productivity; viability (ATP), % of control: higher = more viable cells (more ATP). Rule for the call: 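Called active when intracellular GFP, relative to negative control, is at or above 120%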.
This is a random part of about 50,000 reagents. Of all reagents, about 4,000 (8%) got an active call. 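Mouse siRNA library applied to hamster cells; one well for each siRNA.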 A number with no mark means an inactive call. Reagents against one gene are numbered here.

target gene,siRNA no.,"GFP, % of control","viability (ATP), % of control"
Ttc5 (tetratricopeptide repeat domain 5),1,60.6,81.7
Ttc5 (tetratricopeptide repeat domain 5),2,58.4,98.1
Ttc5 (tetratricopeptide repeat domain 5),3,45.7,62.9
Pop7,1,87.2,62.3
Pop7,2,99.1,89.7
Pop7,3,76,83.3
Disp1 (dispatched RND transporter family member 1),1,80,103
Disp1 (dispatched RND transporter family member 1),2,109,73.8
Disp1 (dispatched RND transporter family member 1),3,76.3,82.3
Naaa (N-acylethanolamine acid amidase),1,110,101
Naaa (N-acylethanolamine acid amidase),2,72.5,81.3
Or1e26 (olfactory receptor family 1 subfamily E member 26),1,61.2,62.5
Or1e26 (olfactory receptor family 1 subfamily E member 26),2,204 (active),39.4
Or1e26 (olfactory receptor family 1 subfamily E member 26),3,64.1,114
Or3a10 (olfactory receptor family 3 subfamily A member 10),1,46.1,28.9
Or3a10 (olfactory receptor family 3 subfamily A member 10),2,86.4,72.9
Or3a10 (olfactory receptor family 3 subfamily A member 10),3,50.1,29.6
Gabra6 (gamma-aminobutyric acid type A receptor subunit alpha 6),1,92,83.7
Gabra6 (gamma-aminobutyric acid type A receptor subunit alpha 6),2,61.6,70.6
Gabra6 (gamma-aminobutyric acid type A receptor subunit alpha 6),3,82.8,53.3
"Ssr2 (signal sequence receptor, beta)",1,52.8,49.4
"Ssr2 (signal sequence receptor, beta)",2,59.5,64.1
"Ssr2 (signal sequence receptor, beta)",3,36.8,63.9
Ska3 (spindle and kinetochore associated complex subunit 3),1,63.5,82.9
Ska3 (spindle and kinetochore associated complex subunit 3),2,89.2,77.9
Ska3 (spindle and kinetochore associated complex subunit 3),3,120 (active),70
"Pdk2 (pyruvate dehydrogenase kinase, isoenzyme 2)",1,65.8,65.6
"Il3ra (interleukin 3 receptor, alpha chain)",1,118,87.5
"Il3ra (interleukin 3 receptor, alpha chain)",2,92.3,85.3
"Il3ra (interleukin 3 receptor, alpha chain)",3,57,57.7
Adam10 (a disintegrin and metallopeptidase domain 10),1,74.9,58.3
Adam10 (a disintegrin and metallopeptidase domain 10),2,69.9,68.5
Adam10 (a disintegrin and metallopeptidase domain 10),3,72.1,68.5
"Col9a1 (collagen, type IX, alpha 1)",1,59.5,44.9
"Col9a1 (collagen, type IX, alpha 1)",2,77.7,66.4
"Col9a1 (collagen, type IX, alpha 1)",3,64.2,67.7
Or2z2 (olfactory receptor family 2 subfamily Z member 2),1,128 (active),63.5
Or2z2 (olfactory receptor family 2 subfamily Z member 2),2,133 (active),94.3
Or2z2 (olfactory receptor family 2 subfamily Z member 2),3,48,105
Snap29 (synaptosomal-associated protein 29),1,107,52.8
Snap29 (synaptosomal-associated protein 29),2,45.3,56.3
Snap29 (synaptosomal-associated protein 29),3,25.7,32.1
Uimc1 (ubiquitin interaction motif containing 1),1,58,41.5
Uimc1 (ubiquitin interaction motif containing 1),2,43.7,50.7
Uimc1 (ubiquitin interaction motif containing 1),3,55.7,82.4
Map3k21 (mitogen-activated protein kinase kinase kinase 21),1,43.2,91.2
Map3k21 (mitogen-activated protein kinase kinase kinase 21),2,81.5,66.8
Map3k21 (mitogen-activated protein kinase kinase kinase 21),3,85.1,74.6
Rhox5 (reproductive homeobox 5),1,114,108
Rhox5 (reproductive homeobox 5),2,81.9,62.5
Rhox5 (reproductive homeobox 5),3,125 (active),57.7
Pthlh (parathyroid hormone-like peptide),1,74.8,76.5
Pthlh (parathyroid hormone-like peptide),2,52.1,68.6
Pthlh (parathyroid hormone-like peptide),3,136 (active),65.7
Aqp5 (aquaporin 5),1,83.2,73.2
Aqp5 (aquaporin 5),2,84.3,81.6
Aqp5 (aquaporin 5),3,154 (active),65.6

Copied from the list.
Value for Or2z2 (olfactory receptor family 2 subfamily Z member 2) #2 in “GFP, % of control”: 133 (active)
Entry of Rhox5 (reproductive homeobox 5) #1 in “viability (ATP), % of control”: 108
Result for Adam10 (a disintegrin and metallopeptidase domain 10) #3 in “GFP, % of control”: 72.1
Under “GFP, % of control”, Map3k21 (mitogen-activated protein kinase kinase kinase 21) #3 reads 85.1
Value for Or1e26 (olfactory receptor family 1 subfamily E member 26) #3 under “GFP, % of control”: 64.1
Value for Pdk2 (pyruvate dehydrogenase kinase, isoenzyme 2) under “GFP, % of control”: 65.8

The results go on:
target gene,siRNA no.,"GFP, % of control","viability (ATP), % of control"
"Inca1 (inhibitor of CDK, cyclin A1 interacting protein 1)",1,45.6,39.6
"Inca1 (inhibitor of CDK, cyclin A1 interacting protein 1)",2,55.6,70.7
"Inca1 (inhibitor of CDK, cyclin A1 interacting protein 1)",3,68.1,92.1
Mt2 (metallothionein 2),1,66,76
Mt2 (metallothionein 2),2,88.3,60.9
Mt2 (metallothionein 2),3,64,79.4
Stap2 (signal transducing adaptor family member 2),1,77.8,71.5
Stap2 (signal transducing adaptor family member 2),2,76.3,82.6
Stap2 (signal transducing adaptor family member 2),3,69.8,83.2
Kirrel1 (kirre like nephrin family adhesion molecule 1),1,108,68.6
Kirrel1 (kirre like nephrin family adhesion molecule 1),2,76.6,49.5
Kirrel1 (kirre like nephrin family adhesion molecule 1),3,75.4,56.6
Psapl1 (prosaposin-like 1),1,85.7,87.2
Psapl1 (prosaposin-like 1),2,40.9,40.6
Psapl1 (prosaposin-like 1),3,53.2,77.4
Mlf2 (myeloid leukemia factor 2),1,73.3,35.9
Mlf2 (myeloid leukemia factor 2),2,46.7,45.6
Mlf2 (myeloid leukemia factor 2),3,123 (active),56.7
Nasp (nuclear autoantigenic sperm protein (histone-binding)),1,54.8,55.5
Nasp (nuclear autoantigenic sperm protein (histone-binding)),2,107,102
Nasp (nuclear autoantigenic sperm protein (histone-binding)),3,56.4,66.2
"Ap1s2 (adaptor-related protein complex 1, sigma 2 subunit)",1,41.9,59.4
"Ap1s2 (adaptor-related protein complex 1, sigma 2 subunit)",2,43.3,48.1
"Ap1s2 (adaptor-related protein complex 1, sigma 2 subunit)",3,81.8,76.2
Icam2 (intercellular adhesion molecule 2),1,69.6,89.7
Icam2 (intercellular adhesion molecule 2),2,98.1,73.9
Rpl39l (ribosomal protein L39-like),1,68.4,70.1
Rpl39l (ribosomal protein L39-like),2,61.3,53.5
Rpl39l (ribosomal protein L39-like),3,67.6,78
